Data: publication doi:10.1101/2021.11.02.466974
These are yes or no findings as the source states them, for the method shown. In cells and extracts the contact can be indirect. Binding calls can cover weak binding; strength is not graded here.

The chains behind the UniProt entries cited, without tags or fusion partners. Where a name states a change or a piece, a line headed by the entry shows the natural chain unless it says otherwise.
UniProt P01375: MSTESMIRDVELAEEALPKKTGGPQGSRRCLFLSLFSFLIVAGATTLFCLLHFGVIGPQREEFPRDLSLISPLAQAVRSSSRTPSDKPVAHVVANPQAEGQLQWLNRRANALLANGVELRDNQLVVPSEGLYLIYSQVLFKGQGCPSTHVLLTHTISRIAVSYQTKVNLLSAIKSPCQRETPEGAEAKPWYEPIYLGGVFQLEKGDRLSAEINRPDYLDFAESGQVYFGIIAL

Biological target: recombinant HS-TNFα (UniProt P01375)
Assay: pull-down

B1: endogenous mouse N4BP1 (NEDD4-binding protein 1) (protein, UniProt Q6A037 1-893)
chain: MAARVVLDEFTAPAEKAALLERSRGRIEALFGVGLAVLGALGAEEPLPARIWLQLRGAQEAVHSAKEYIKGICEPELEEKECYPKAMHCIFVGAQSLFLKSLIQDTCADLCVLDTGLLGIRGSAEAVVMARSHIQQFVKLFESNENLPSNQRESEIKREFRQFVEAHADSYTMDLLILPTSLKKELLSLTQGEESLFETDDDVITVGDVRPPEYTQSAATGPSSARDEVVVQEDSRNKARTPVSELTKHMDTVFSSSPDVLFVPVNGLSPDEDALSKDRVCHKRRSSDTEERHTKKQFSLENVPEGELLPDGKGSAGNEVIDLSDPASNSTNLSPDGKDTTEEMEYNILVNFFKTMGYSQEIVEKVIREYGPSTEPLLLLEEIEKENKRLQEDRDFPPCTVYPDASQSRNAGVGSTTNELTADSTPKKAQSHTEQSMVERFSQLPFKDSKHCTSNCKVNSFRTVPVGQKQEIWGSKQNSSCTVDLETDGHSASAASASPKDISFVSRGASGHQQRNPAFPENGFQQQTEPLLPNNTKPACEKRSGSCSSPQPKPNYPPLSPPLPLPQLLPSVTEARLGGSSDHIDSSVTGVQRFRDTLKIPYKLELKNEPGRADLKHIVIDGSNVAITHGLKKFFSCRGIAIAVEYFWKLGNRNITVFVPQWRTRRDPNITEQHFLTQLQELGILSLTPARMVFGERIASHDDRFLLHLADKTGGIIVTNDNFREFVTESVSWREIITKRLLQYTFVGDIFMVPDDPLGRNGPRLEEFLRKEAFLRHMQPLLNALPSVGTFDPGFRSPSTQVANNSHQPPPRIQTSSSPWLPQQSHFTALATLPSMQQNPPLPAQRSSAETSELREALLKIFPDSEQKLKIDQILAAHPYMKDLNALSALVLD
  binding: binds
